Measurements taken from paper PMC8263732, “M1BP cooperates with CP190 to activate transcription at TAD borders and promote chromatin insulator activity” (Nature Communications, 2021).
Results are given in words; binding and its absence hold for the method and conditions named. In cells and extracts the contact can be indirect.

Columns and labels:
Assay in all cases: co-IP; 500 ug nuclear extract of 0-24 h Drosophila embryos incubated overnight at 4 C with antiserum (anti-Su(Hw), anti-CP190, anti-Mod(mdg4)67.2 or anti-M1BP; normal serum as control) cross-linked to Protein A or G Sepharose; washed twice with HBSMT and once with HBSM; western blotting; efficiency as percent of total input protein
[1] = biological target: T1, Centrosomal protein 190 (CP190) (Drosophila (endogenous in 0-24 h Oregon R embryos)) (UniProt Q24478)
T1 sequence: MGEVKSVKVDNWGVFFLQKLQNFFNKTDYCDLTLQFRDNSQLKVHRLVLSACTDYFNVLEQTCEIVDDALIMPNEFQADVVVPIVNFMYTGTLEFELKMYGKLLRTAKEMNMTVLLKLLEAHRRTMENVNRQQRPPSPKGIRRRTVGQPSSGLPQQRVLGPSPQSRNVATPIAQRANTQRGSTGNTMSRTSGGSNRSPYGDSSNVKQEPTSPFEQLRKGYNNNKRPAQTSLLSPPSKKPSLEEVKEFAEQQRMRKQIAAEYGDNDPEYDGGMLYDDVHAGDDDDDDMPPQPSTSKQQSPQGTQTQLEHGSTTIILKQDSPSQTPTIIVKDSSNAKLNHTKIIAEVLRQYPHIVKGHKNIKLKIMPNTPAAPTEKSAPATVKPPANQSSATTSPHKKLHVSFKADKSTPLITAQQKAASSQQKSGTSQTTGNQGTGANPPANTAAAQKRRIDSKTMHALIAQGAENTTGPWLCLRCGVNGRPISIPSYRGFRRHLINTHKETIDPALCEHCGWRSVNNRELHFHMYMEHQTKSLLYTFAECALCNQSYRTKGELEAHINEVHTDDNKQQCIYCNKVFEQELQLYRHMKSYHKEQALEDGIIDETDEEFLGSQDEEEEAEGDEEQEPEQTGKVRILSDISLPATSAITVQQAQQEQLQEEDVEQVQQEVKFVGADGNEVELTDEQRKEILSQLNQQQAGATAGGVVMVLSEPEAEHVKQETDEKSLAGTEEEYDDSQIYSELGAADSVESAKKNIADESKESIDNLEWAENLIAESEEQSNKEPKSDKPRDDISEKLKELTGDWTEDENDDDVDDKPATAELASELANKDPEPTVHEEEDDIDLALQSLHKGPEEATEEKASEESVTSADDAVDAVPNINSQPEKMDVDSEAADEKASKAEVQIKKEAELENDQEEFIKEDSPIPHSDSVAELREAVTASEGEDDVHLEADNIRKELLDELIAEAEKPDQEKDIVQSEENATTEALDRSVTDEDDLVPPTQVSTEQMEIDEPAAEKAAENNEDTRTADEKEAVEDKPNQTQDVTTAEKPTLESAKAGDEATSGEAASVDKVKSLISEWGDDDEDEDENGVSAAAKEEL

[2] = biological target: T2, Modifier of mdg4 [Mod(mdg4)] 67.2 kDa isoform [Mod(mdg4)67.2] (Drosophila (endogenous in 0-24 h Oregon R embryos)) (UniProt Q86B87)
T2 sequence: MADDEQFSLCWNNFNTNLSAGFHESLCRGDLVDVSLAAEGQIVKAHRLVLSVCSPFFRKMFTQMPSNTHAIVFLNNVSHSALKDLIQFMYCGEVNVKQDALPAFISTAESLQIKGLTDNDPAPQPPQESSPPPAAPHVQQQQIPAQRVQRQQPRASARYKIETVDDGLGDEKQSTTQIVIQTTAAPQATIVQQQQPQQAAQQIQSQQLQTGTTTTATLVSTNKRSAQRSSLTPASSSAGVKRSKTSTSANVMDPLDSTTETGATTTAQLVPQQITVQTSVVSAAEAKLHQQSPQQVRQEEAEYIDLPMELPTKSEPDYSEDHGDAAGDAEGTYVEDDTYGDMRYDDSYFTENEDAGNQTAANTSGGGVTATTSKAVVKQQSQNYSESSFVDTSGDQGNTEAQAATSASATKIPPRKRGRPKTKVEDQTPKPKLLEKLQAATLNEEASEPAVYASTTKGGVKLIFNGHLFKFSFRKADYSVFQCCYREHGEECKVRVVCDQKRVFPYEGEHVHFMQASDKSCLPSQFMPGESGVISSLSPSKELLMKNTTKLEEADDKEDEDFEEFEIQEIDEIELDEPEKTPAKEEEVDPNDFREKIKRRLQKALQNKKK

[3] = biological target: T3, Motif 1 Binding Protein (M1BP) (Drosophila (endogenous in 0-24 h Oregon R embryos)) (UniProt Q9VHM3)
T3 sequence: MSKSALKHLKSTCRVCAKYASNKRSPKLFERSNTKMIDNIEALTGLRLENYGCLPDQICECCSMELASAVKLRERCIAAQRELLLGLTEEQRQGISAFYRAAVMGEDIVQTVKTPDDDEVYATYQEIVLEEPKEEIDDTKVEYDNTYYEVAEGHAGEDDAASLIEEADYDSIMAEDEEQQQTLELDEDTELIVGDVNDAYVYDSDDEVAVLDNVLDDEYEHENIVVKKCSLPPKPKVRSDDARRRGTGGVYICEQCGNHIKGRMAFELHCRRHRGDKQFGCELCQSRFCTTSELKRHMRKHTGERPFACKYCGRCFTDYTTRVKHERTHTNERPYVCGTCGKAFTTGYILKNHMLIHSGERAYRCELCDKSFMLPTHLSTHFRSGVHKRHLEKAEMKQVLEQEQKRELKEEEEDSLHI

[4] = biological target: T4, Suppressor of Hairy wing [Su(Hw)] (Drosophila (endogenous in 0-24 h Oregon R embryos)) (UniProt P08970)
T4 sequence: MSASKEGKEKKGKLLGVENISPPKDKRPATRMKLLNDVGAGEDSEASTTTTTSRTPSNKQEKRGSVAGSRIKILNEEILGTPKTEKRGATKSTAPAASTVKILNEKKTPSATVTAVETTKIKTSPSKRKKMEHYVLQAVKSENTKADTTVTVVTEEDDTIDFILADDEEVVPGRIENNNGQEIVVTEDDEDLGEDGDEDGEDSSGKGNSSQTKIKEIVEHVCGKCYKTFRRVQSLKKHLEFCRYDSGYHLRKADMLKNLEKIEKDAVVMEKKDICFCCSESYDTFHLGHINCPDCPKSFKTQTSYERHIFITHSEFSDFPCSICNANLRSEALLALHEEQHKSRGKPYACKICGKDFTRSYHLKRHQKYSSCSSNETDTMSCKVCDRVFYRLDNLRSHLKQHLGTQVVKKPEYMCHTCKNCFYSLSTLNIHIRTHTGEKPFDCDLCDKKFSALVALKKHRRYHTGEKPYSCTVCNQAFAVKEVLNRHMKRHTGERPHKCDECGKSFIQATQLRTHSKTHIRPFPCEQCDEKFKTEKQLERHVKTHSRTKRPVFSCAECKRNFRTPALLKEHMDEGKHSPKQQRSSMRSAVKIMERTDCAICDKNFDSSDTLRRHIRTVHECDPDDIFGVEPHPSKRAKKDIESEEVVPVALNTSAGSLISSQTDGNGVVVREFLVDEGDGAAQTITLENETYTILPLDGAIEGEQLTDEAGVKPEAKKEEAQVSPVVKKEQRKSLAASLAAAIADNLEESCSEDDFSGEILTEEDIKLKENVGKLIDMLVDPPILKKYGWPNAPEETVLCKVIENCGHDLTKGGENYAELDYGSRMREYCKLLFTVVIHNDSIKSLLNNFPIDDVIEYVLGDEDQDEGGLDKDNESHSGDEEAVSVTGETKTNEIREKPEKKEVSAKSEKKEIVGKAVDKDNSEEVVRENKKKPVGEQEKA

Measured: binding

B1: Polycomb (Pc) (protein, UniProt P26017 1-390)
chain: MTGRGKGSKGKLGRDNATDDPVDLVYAAEKIIQKRVKKGVVEYRVKWKGWNQRYNTWEPEVNILDRRLIDIYEQTNKSSGTPSKRGIKKKEKEPDPEPESEEDEYTFTENDVDTHQATTSSATHDKESKKEKKHHHHHHHHHHIKSERNSGRRSESPLTHHHHHHHHESKRQRIDHSSSSNSSFTHNSFVPEPDSNSSSSEDQPLIGTKRKAEVLKESGKIGVTIKTSPDGPTIKPQPTQQVTPSQQQPFQDQQQAEKIASEAATQLKSEQQATPLATEAINTTPAESGAEEEEVANEEGNQQAPQVPSENNNIPKPCNNLAINQKQPLTPLSPRALPPRFWLPAKCNISNRVVITDVTVNLETVTIRECKTERGFFRERDMKGDSSPVA
no binding: [1] | [2] | [3] | [4]
